“And” between values parts separate entries of the source, which are not always exact repeats. Equal values may be shown once. This is one part of the list.

Drawing on paper PMC5996148, this text covers binding signal for one sequence.

Experiment in all cases: protein microarray (ProtoArray v5.0), streptavidin-Alexa Fluor 647
What all share (conditions): 3'-biotin; 20 mM Tris (pH 7.5), 5 mM MgCl2, 100 mM KCl, 0.1% Tween-20, A/T-rich and random oligonucleotide blockers; temperature not stated; high values mean tight binding

Assay [1] has as its system PYCR1 (human).
Assay [2] deals with PYCR2 (human).
Assay [3] concerns PYHIN1 (human).
The subject of assay [4] is Paladin (human).
Assay [5] deals with Pantothenate kinase 1 (human).
Assay [6] concerns Paralemmin-2 (human).
Assay [7] deals with Parvalbumin alpha (human).
The subject of assay [8] is Peptidase inhibitor 16 (human).
For assay [9], the system named is Peptidyl-prolyl cis-trans isomerase-like 3 (human).
Assay [10] concerns Peptidyl-tRNA hydrolase 2, mitochondrial (human).
Assay [11] has as its system Phosphatase and actin regulator 4 (human).
The test system of assay [12] is Phosphatidylinositol-3,4,5-trisphosphate 3-phosphatase and dual-specificity protein phosphatase PTEN (human).
The test system of assay [13] is Phosphoacetylglucosamine mutase (human).
The test system of assay [14] is Phosphoglucomutase-2 (human).
Assay [15] concerns Phosphoglycerate mutase 1 (human).
Assay [16] concerns Phosphoglycerate mutase 2 (human).
The test system of assay [17] is Phospholipase DDHD2 (human).
Assay [18] relates to Phospholysine phosphohistidine inorganic pyrophosphate phosphatase (human).
For assay [19], the system named is Photoreceptor-specific nuclear receptor (human).
The test system of assay [20] is Phytanoyl-CoA dioxygenase domain-containing protein 1 (human).

Consider “GGGAGGCTGAGGCAGG [G4-1 biotinylated (PQS2)]”, for which the binding signal in [1] is -0.35 z-score; in assay [2], -0.308 z-score; in assay [3], -0.343 z-score; in assay [4], -0.327 z-score; in assay [5], -0.356 z-score and -0.329 z-score; in assay [6] it was -0.323 z-score. The binding signal is -0.334 z-score in assay [7]; -0.337 z-score in assay [8]; -0.356 z-score in assay [9]; 6.85 z-score in [10]; -0.331 z-score in assay [11]; -0.356 z-score in assay [12]. The binding signal in [13] is -0.352 z-score; in assay [14], -0.351 z-score; in assay [15] it was -0.333 z-score; in assay [16] it was -0.315 z-score; in assay [17] it was -0.347 z-score; in assay [18] it was -0.331 z-score. Besides, the binding signal in assay [19] was -0.324 z-score; in assay [20], -0.303 z-score and -0.323 z-score.
